# Laboratory results: the supplement of paper PMC8728848
# This is one part of the list.
# B1: LF82 (Escherichia coli) (protein)
# chain: ADWGPCRTASGDPFIFVTSFTKNIQNPTDNVTGQTYPDFYQWALGDKYSGVCECPSPNPTEARPTLYKTESTLAAGHNSTYFKITNNLEVSTRVYIANVGNVQVPFINKSNSQPGRECDQPTFGWTTGSKGQLSLYIAKPFVGEQNIPQTIIVSVFGTKKENVYSSVPISQVLLSGKVTVTQGCELAAGTSLDIDFGEYQAHDFKGRTGQPPQNVQKIQKELTFNCTNISDGVHIYLSLEGTPNAAYPSAISLGNADVGAVIEDGKGNILKPNDSNSLLEMNPGSLYEYVKRKVTTTITAYPVSTTGKLPAAGDYSGVATMHVELDGGGGGGGGGGATTDLGAKGTLKFSLKISQGHHHHHH
# Assays:
# Experiment in all cases: glycan array binding signal (z-score within array); higher = stronger binding
# Conditions in all cases: glycan notation: IUPAC condensed, linker removed
# Gal3S(b1-4)Glc = biological target: Gal3S(b1-4)Glc
# Outline: (§1)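 The binding signal is a Z-score computed within each array. Data were drawn from 3228 arrays in the Consortium for Functional Glycomics database, restricted to those with a known protein sequence. Scores were averaged over arrays of the same protein sequence at different concentrations or buffers, and over linkers, and negative values can be taken as non-binding.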
# Gal3S(b1-4)Glc6S = biological target: Gal3S(b1-4)Glc6S
# Outline: as §1
# Gal3S(b1-4)GlcNAc = biological target: Gal3S(b1-4)GlcNAc
# Outline: as §1
# [1] = biological target: Gal3S(b1-4)[Fuc(a1-3)]Glc6S
# Outline: as §1
# [2] = biological target: Gal3S(b1-4)[Fuc(a1-3)]GlcNAc
# Outline: as §1
# [3] = biological target: Gal3S(b1-4)[Fuc(a1-3)]GlcNAc6S
# Outline: as §1
# Gal3S4S(b1-4)GlcNAc = biological target: Gal3S4S(b1-4)GlcNAc
# Outline: as §1
# Gal3S6S(b1-4)GlcNAc = biological target: Gal3S6S(b1-4)GlcNAc
# Outline: as §1
# Gal3S6S(b1-4)GlcNAc6S = biological target: Gal3S6S(b1-4)GlcNAc6S
# Outline: as §1
# Gal4S(b1-4)GlcNAc = biological target: Gal4S(b1-4)GlcNAc
# Outline: as §1
# Gal4S6S(b1-4)GlcNAc = biological target: Gal4S6S(b1-4)GlcNAc
# Outline: as §1
# Gal6P(b1-4)GlcNAc = biological target: Gal6P(b1-4)GlcNAc
# Outline: as §1
# Gal6S(b1-3)GlcNAc = biological target: Gal6S(b1-3)GlcNAc
# Outline: as §1
# Gal6S(b1-3)GlcNAc6S = biological target: Gal6S(b1-3)GlcNAc6S
# Outline: as §1
# Gal6S(b1-4)Glc = biological target: Gal6S(b1-4)Glc
# Outline: as §1
# Gal6S(b1-4)Glc6S = biological target: Gal6S(b1-4)Glc6S
# Outline: as §1
# Gal6S(b1-4)GlcNAc = biological target: Gal6S(b1-4)GlcNAc
# Outline: as §1
# Gal6S(b1-4)GlcNAc6S = biological target: Gal6S(b1-4)GlcNAc6S
# Outline: as §1
# GalNAc(a1-3)Gal = biological target: GalNAc(a1-3)Gal
# Outline: as §1
# GalNAc(a1-3)GalNAc = biological target: GalNAc(a1-3)GalNAc
# Outline: as §1
# [4] = biological target: GalNAc(a1-3)GalNAc(b1-3)Gal(a1-4)Gal(b1-4)Glc
# Outline: as §1
# [5] = biological target: GalNAc(a1-3)GalNAc(b1-3)Gal(a1-4)Gal(b1-4)GlcNAc
# Outline: as §1
# GalNAc(b1-3)Gal = biological target: GalNAc(b1-3)Gal
# Outline: as §1
# [6] = biological target: GalNAc(b1-3)Gal(a1-4)Gal(b1-4)GlcNAc
# Outline: as §1
# [7] = biological target: GalNAc(b1-3)Gal(a1-4)Gal(b1-4)GlcNAc(b1-3)Gal(b1-4)Glc
# Outline: as §1
# [8] = biological target: GalNAc(b1-3)Gal(a1-6)Gal(b1-4)Glc
# Outline: as §1
# GalNAc(b1-3)GalNAc = biological target: GalNAc(b1-3)GalNAc
# Outline: as §1
# GalNAc(b1-3)GlcNAc = biological target: GalNAc(b1-3)GlcNAc
# Outline: as §1
# GalNAc(b1-4)Gal(b1-4)Glc = biological target: GalNAc(b1-4)Gal(b1-4)Glc
# Outline: as §1
# GalNAc(b1-4)GlcNAc = biological target: GalNAc(b1-4)GlcNAc
# Outline: as §1
# [9] = biological target: GalNAc(b1-4)GlcNAc(b1-2)Man
# Outline: as §1
# [10] = biological target: GalNAc(b1-4)GlcNAc(b1-2)Man(a1-3)[GalNAc(b1-4)GlcNAc(b1-2)Man(a1-6)]Man(b1-4)GlcNAc(b1-4)GlcNAc
# Outline: as §1
# [11] = biological target: GalNAc(b1-4)GlcNAc(b1-3)GalNAc(b1-4)GlcNAc
# Outline: as §1
# GalNAc(b1-4)GlcNAc6S = biological target: GalNAc(b1-4)GlcNAc6S
# Outline: as §1
# GalNAc(b1-6)GalNAc = biological target: GalNAc(b1-6)GalNAc
# Outline: as §1
# GalNAc3S(b1-4)GlcNAc = biological target: GalNAc3S(b1-4)GlcNAc
# Outline: as §1
# GalNAc3S(b1-4)GlcNAc3S = biological target: GalNAc3S(b1-4)GlcNAc3S
# Outline: as §1
# [12] = biological target: GalNAc3S(b1-4)[Fuc(a1-3)]GlcNAc
# Outline: as §1
# GalNAc4S6S(b1-4)GlcNAc = biological target: GalNAc4S6S(b1-4)GlcNAc
# Outline: as §1
# GalNAc6S(b1-4)GlcNAc = biological target: GalNAc6S(b1-4)GlcNAc
# Outline: as §1
# Glc(a1-4)Glc = biological target: Glc(a1-4)Glc
# Outline: as §1
# [13] = biological target: Glc(a1-4)Glc(a1-4)Glc(a1-4)Glc
# Outline: as §1
# Glc(a1-6)Glc(a1-6)Glc = biological target: Glc(a1-6)Glc(a1-6)Glc
# Outline: as §1
# [14] = biological target: Glc(a1-6)Glc(a1-6)Glc(a1-6)Glc
# Outline: as §1
# Glc(b1-4)Glc = biological target: Glc(b1-4)Glc
# Outline: as §1
binder,measurement,setting,value
B1,glycan array binding signal (z-score),Gal3S(b1-4)Glc,-0.34
same,glycan array binding signal (z-score),Gal3S(b1-4)Glc6S,-0.104
same,glycan array binding signal (z-score),Gal3S(b1-4)GlcNAc,-0.102
same,glycan array binding signal (z-score),[1],-0.55
same,glycan array binding signal (z-score),[2],0.367
same,glycan array binding signal (z-score),[3],0.096
same,glycan array binding signal (z-score),Gal3S4S(b1-4)GlcNAc,-0.428
same,glycan array binding signal (z-score),Gal3S6S(b1-4)GlcNAc,0.787
same,glycan array binding signal (z-score),Gal3S6S(b1-4)GlcNAc6S,-0.014
same,glycan array binding signal (z-score),Gal4S(b1-4)GlcNAc,-0.492
same,glycan array binding signal (z-score),Gal4S6S(b1-4)GlcNAc,-0.039
same,glycan array binding signal (z-score),Gal6P(b1-4)GlcNAc,-0.578
same,glycan array binding signal (z-score),Gal6S(b1-3)GlcNAc,-1.32
same,glycan array binding signal (z-score),Gal6S(b1-3)GlcNAc6S,-0.889
same,glycan array binding signal (z-score),Gal6S(b1-4)Glc,-0.342
same,glycan array binding signal (z-score),Gal6S(b1-4)Glc6S,1.7
same,glycan array binding signal (z-score),Gal6S(b1-4)GlcNAc,0.02
same,glycan array binding signal (z-score),Gal6S(b1-4)GlcNAc6S,0.849
same,glycan array binding signal (z-score),GalNAc(a1-3)Gal,-0.316
same,glycan array binding signal (z-score),GalNAc(a1-3)GalNAc,-0.252
same,glycan array binding signal (z-score),[4],0.343
same,glycan array binding signal (z-score),[5],-0.744
same,glycan array binding signal (z-score),GalNAc(b1-3)Gal,0.142
same,glycan array binding signal (z-score),[6],2.1
same,glycan array binding signal (z-score),[7],-0.512
same,glycan array binding signal (z-score),[8],0.447
same,glycan array binding signal (z-score),GalNAc(b1-3)GalNAc,0.423
same,glycan array binding signal (z-score),GalNAc(b1-3)GlcNAc,-0.22
same,glycan array binding signal (z-score),GalNAc(b1-4)Gal(b1-4)Glc,0.956
same,glycan array binding signal (z-score),GalNAc(b1-4)GlcNAc,0.982
same,glycan array binding signal (z-score),[9],0.518
same,glycan array binding signal (z-score),[10],-0.272
same,glycan array binding signal (z-score),[11],0.16
same,glycan array binding signal (z-score),GalNAc(b1-4)GlcNAc6S,-0.757
same,glycan array binding signal (z-score),GalNAc(b1-6)GalNAc,-0.45
same,glycan array binding signal (z-score),GalNAc3S(b1-4)GlcNAc,-0.069
same,glycan array binding signal (z-score),GalNAc3S(b1-4)GlcNAc3S,0.34
same,glycan array binding signal (z-score),[12],0.051
same,glycan array binding signal (z-score),GalNAc4S6S(b1-4)GlcNAc,-0.262
same,glycan array binding signal (z-score),GalNAc6S(b1-4)GlcNAc,-0.033
same,glycan array binding signal (z-score),Glc(a1-4)Glc,-0.601
same,glycan array binding signal (z-score),[13],1.21
same,glycan array binding signal (z-score),Glc(a1-6)Glc(a1-6)Glc,-0.628
same,glycan array binding signal (z-score),[14],-0.531
same,glycan array binding signal (z-score),Glc(b1-4)Glc,-0.609

# Reformatted as tab-separated lines: part of the list above
binder	measurement	setting	value
B1	glycan array binding signal (z-score)	[5]	-0.744
same	glycan array binding signal (z-score)	GalNAc(b1-3)Gal	0.142
